Laboratory results published in the supplement of paper PMC12823440, “Inhibitors supercharge kinase turnover through native proteolytic circuits” (Nature, 2025).
Counter-ions that a name gives are not always drawn. The list shows a part of the results. Hit calls seldom repeat between salt and free forms of one compound.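 Kinases were expressed as nanoluciferase fusions in K562 cells and luminescence was read every 4 h between 2 and 18 h as percent of control, DMSO set to 100% and a positive control to 0%. A time point counts as decreased when the signal drops significantly (2 sigma). The hit call is the authors' own, does not follow from the count of time points alone, and its rule is not shown.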

The chains behind the UniProt entries cited, without tags or fusion partners. Where a name states a change or a piece, a line headed by the entry shows the natural chain unless it says otherwise.
UniProt Q06187: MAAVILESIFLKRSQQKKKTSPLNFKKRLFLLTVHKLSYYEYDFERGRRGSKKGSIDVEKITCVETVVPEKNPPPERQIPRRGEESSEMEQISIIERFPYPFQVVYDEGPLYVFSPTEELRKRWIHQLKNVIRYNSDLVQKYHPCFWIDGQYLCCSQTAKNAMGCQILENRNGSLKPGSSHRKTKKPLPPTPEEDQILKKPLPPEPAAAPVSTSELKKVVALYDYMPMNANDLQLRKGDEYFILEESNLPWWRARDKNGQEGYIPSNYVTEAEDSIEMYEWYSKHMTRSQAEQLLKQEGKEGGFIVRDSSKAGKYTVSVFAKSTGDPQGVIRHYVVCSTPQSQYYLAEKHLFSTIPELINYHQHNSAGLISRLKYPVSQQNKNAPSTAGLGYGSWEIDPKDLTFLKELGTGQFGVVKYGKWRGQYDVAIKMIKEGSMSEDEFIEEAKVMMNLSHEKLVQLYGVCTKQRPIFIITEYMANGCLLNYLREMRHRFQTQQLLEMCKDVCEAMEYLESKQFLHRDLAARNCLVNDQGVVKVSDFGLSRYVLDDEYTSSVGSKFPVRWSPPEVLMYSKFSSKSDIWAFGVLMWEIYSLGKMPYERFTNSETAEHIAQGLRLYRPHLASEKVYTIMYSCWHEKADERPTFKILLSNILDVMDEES
UniProt Q9UQM7, whole entry: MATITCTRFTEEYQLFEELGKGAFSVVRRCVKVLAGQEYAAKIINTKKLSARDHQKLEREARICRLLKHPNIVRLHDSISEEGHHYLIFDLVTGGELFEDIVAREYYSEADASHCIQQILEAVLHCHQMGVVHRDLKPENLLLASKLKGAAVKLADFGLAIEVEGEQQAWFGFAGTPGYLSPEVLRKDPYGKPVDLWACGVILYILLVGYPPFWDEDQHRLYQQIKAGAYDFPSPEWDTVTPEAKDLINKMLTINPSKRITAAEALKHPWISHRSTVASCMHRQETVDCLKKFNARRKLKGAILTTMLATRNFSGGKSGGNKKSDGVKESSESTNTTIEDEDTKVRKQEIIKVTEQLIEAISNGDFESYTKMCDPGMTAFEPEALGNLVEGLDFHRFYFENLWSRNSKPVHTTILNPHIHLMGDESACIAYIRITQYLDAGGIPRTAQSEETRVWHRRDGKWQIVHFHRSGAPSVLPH
UniProt Q00526: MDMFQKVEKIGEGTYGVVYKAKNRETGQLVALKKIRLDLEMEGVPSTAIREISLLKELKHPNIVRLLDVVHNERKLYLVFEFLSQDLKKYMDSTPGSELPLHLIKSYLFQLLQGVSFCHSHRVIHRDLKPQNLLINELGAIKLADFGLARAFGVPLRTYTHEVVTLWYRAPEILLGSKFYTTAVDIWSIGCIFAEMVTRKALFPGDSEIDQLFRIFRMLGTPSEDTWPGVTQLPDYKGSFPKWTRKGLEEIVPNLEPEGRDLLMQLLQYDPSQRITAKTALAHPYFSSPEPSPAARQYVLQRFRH
UniProt P11802: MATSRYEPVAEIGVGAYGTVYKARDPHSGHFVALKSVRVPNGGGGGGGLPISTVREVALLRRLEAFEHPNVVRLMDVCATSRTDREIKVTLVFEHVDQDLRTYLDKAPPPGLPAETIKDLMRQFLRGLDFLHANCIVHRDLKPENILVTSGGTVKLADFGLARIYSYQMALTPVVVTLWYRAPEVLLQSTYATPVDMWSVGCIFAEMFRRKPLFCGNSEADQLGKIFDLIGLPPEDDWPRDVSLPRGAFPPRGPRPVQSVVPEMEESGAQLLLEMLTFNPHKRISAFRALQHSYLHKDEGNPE
UniProt Q00535, whole entry, looked up: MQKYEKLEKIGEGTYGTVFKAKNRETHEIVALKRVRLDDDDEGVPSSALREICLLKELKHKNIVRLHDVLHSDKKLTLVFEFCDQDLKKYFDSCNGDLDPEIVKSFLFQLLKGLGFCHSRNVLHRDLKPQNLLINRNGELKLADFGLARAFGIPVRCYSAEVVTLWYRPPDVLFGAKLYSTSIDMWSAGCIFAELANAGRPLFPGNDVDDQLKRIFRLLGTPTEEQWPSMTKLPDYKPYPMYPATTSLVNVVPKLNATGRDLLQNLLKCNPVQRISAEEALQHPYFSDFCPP
UniProt Q00534, whole entry: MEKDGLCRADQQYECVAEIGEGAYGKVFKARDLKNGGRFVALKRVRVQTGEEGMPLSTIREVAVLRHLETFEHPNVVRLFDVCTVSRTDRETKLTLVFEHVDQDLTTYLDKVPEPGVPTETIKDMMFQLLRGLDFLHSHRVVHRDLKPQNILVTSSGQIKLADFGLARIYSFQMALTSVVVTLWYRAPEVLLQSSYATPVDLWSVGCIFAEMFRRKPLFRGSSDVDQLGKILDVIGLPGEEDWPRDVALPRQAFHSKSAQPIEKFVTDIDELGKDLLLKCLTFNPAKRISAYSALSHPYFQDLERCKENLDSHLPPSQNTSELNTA
UniProt P50613: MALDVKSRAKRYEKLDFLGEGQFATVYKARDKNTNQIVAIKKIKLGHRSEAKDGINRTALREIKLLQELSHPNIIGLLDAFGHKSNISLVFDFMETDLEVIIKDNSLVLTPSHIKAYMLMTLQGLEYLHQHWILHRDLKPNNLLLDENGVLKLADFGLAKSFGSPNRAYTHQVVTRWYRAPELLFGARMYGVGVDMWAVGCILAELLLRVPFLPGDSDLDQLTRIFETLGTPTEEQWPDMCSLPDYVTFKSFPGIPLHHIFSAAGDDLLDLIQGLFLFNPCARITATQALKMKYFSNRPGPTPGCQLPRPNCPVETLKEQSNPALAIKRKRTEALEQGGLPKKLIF
UniProt P50750, whole entry: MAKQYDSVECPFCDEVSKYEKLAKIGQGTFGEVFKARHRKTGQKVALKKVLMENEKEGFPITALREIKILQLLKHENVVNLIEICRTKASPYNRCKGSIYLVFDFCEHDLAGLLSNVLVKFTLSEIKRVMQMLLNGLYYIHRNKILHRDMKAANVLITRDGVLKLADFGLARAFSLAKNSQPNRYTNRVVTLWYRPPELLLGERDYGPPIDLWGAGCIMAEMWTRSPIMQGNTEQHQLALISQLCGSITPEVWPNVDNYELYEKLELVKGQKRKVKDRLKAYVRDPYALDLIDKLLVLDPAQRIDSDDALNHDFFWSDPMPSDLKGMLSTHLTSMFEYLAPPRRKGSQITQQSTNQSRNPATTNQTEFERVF
UniProt O96017, whole entry: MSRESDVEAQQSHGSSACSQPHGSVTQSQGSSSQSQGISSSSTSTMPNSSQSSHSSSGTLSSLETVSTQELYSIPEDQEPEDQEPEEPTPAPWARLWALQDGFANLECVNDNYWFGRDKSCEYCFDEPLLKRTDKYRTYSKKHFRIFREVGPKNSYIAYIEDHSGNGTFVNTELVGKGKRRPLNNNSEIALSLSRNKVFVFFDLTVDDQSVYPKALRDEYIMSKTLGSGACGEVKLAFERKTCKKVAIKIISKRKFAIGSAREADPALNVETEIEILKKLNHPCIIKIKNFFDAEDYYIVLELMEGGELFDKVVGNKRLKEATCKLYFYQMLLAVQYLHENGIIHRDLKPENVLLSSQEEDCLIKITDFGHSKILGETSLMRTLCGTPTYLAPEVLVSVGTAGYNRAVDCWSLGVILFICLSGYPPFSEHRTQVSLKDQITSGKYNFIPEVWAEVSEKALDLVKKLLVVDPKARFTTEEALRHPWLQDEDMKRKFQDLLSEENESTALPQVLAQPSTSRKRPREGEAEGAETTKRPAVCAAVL
UniProt P07333, whole entry: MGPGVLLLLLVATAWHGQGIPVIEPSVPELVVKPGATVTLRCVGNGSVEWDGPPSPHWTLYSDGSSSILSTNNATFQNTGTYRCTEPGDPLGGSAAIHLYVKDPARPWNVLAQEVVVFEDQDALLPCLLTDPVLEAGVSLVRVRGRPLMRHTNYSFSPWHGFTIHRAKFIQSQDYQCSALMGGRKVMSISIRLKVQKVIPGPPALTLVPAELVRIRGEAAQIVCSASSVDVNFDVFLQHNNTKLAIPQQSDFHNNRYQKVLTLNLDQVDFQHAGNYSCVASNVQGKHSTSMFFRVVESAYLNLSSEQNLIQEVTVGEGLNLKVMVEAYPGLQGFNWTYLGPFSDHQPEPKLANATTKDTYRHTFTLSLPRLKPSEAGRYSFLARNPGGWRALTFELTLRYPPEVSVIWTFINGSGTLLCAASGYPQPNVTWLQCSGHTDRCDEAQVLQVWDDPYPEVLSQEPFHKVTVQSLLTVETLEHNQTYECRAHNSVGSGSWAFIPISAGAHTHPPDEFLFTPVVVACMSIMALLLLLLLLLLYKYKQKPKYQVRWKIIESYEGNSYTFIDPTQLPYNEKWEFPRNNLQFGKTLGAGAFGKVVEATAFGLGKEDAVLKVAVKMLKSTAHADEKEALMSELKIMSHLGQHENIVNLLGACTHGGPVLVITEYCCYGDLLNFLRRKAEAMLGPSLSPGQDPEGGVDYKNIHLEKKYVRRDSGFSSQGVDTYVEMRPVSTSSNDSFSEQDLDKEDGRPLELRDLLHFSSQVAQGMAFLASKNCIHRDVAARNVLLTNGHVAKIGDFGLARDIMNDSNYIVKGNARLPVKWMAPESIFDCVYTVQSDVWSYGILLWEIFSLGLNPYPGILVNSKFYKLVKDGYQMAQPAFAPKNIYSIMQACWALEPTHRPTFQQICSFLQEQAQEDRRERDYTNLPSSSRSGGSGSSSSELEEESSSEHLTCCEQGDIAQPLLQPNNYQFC
UniProt P41240: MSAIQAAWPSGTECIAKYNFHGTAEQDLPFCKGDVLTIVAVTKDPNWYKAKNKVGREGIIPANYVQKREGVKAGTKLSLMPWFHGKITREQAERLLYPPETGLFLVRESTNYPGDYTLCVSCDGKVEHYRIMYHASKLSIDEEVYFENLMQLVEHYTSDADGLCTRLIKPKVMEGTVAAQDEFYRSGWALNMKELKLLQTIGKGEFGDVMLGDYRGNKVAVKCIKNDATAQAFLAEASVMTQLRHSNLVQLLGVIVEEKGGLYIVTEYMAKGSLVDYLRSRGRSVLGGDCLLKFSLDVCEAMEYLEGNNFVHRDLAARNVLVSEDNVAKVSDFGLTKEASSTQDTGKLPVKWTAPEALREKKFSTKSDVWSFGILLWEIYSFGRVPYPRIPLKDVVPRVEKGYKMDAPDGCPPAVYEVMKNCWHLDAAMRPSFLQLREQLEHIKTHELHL
UniProt Q08345: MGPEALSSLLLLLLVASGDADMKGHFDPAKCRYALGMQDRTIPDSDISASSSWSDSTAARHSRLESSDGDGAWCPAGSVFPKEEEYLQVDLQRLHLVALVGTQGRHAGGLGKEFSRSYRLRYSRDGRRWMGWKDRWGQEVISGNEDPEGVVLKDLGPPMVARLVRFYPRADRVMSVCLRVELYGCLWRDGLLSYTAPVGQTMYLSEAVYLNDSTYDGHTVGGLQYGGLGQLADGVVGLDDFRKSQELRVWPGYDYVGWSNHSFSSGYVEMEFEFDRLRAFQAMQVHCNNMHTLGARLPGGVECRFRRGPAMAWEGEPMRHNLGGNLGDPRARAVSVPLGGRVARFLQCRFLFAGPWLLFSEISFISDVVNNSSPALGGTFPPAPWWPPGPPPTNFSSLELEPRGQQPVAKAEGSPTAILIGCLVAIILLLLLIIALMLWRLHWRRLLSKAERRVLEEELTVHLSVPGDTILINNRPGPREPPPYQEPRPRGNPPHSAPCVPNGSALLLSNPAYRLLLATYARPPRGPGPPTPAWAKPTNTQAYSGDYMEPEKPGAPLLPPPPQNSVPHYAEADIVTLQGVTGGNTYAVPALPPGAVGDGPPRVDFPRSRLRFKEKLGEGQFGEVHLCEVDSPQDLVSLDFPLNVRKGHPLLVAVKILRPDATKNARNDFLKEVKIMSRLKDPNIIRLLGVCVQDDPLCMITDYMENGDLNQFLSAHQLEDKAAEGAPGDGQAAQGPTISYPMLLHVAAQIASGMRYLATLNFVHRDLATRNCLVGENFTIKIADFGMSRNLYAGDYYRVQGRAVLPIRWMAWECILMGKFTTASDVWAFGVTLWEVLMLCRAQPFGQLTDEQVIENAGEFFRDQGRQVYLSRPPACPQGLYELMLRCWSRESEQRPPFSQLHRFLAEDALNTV
UniProt Q92630: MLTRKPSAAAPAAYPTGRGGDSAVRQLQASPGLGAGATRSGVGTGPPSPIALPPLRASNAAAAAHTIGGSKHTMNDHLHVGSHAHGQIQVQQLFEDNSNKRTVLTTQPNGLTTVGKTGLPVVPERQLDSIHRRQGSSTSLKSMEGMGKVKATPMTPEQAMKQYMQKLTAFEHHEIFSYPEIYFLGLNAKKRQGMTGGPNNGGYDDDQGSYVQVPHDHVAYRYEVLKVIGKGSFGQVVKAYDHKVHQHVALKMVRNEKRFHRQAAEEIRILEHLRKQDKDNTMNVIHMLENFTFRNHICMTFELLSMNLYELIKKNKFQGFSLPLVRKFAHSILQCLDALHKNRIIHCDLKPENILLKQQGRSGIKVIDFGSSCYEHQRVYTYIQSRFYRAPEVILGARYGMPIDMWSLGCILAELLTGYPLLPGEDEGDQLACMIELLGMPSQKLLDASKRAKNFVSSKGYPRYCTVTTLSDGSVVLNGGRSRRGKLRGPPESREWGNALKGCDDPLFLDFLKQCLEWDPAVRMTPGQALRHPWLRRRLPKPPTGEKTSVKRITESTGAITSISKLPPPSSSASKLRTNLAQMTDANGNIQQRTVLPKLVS

Experiments:
Assay in all cases: kinase-Nluc reporter destabilization hit call (1 = scored as downregulated) (binary); higher = compound decreases kinase abundance
Settings in all cases: K562; 2-18 h
[1] = tested on: BRAF_V600E
[2] = biological target: BTK (UniProt Q06187)
[3] = biological target: CAMK2A (UniProt Q9UQM7)
[4] = biological target: CAMK2G (UniProt Q13555)
[5] = biological target: CDK10 (UniProt Q15131)
[6] = biological target: CDK2 (UniProt P24941)
[7] = biological target: CDK3 (UniProt Q00526)
[8] = biological target: CDK4 (UniProt P11802)
[9] = biological target: CDK5 (UniProt Q00535)
[10] = biological target: CDK6 (UniProt Q00534)
[11] = biological target: CDK7 (UniProt P50613)
[12] = biological target: CDK9 (UniProt P50750)
[13] = biological target: CHEK2 (UniProt O96017)
[14] = biological target: CSF1R (UniProt P07333)
[15] = biological target: CSK (UniProt P41240)
[16] = biological target: CSNK1A1 (UniProt P48729)
[17] = biological target: CSNK1D (UniProt P48730)
[18] = biological target: DDR1 (UniProt Q08345)
[19] = biological target: DYRK1B (UniProt Q9Y463)
[20] = biological target: DYRK2 (UniProt Q92630)

Compound | kinase-Nluc reporter destabilization hit call [1] | kinase-Nluc reporter destabilization hit call [2] | kinase-Nluc reporter destabilization hit call [3] | kinase-Nluc reporter destabilization hit call [4] | kinase-Nluc reporter destabilization hit call [5] | kinase-Nluc reporter destabilization hit call [6] | kinase-Nluc reporter destabilization hit call [7] | kinase-Nluc reporter destabilization hit call [8] | kinase-Nluc reporter destabilization hit call [9] | kinase-Nluc reporter destabilization hit call [10] | kinase-Nluc reporter destabilization hit call [11] | kinase-Nluc reporter destabilization hit call [12] | kinase-Nluc reporter destabilization hit call [13] | kinase-Nluc reporter destabilization hit call [14] | kinase-Nluc reporter destabilization hit call [15] | kinase-Nluc reporter destabilization hit call [16] | kinase-Nluc reporter destabilization hit call [17] | kinase-Nluc reporter destabilization hit call [18] | kinase-Nluc reporter destabilization hit call [19] | kinase-Nluc reporter destabilization hit call [20]
CC(C)c1cc(/C=C(\C#N)C(=O)NCCCc2ccccc2)cc(C(C)C)c1O (10 µM) | inactive: 0 | inactive: 0 | inactive: 0 | inactive: 0 | inactive: 0 | inactive: 0 | inactive: 0 | inactive: 0 | inactive: 0 | inactive: 0 | inactive: 0 | inactive: 0 | inactive: 0 | inactive: 0 | inactive: 0 | inactive: 0 | inactive: 0 | inactive: 0 | inactive: 0 | inactive: 0
COc1cc(N2CCOCC2)ccc1Nc1ncc(Cl)c(Nc2ccccc2NS(C)(=O)=O)n1 (2.5 µM) | inactive: 0 | inactive: 0 | inactive: 0 | inactive: 0 | inactive: 0 | inactive: 0 | inactive: 0 | inactive: 0 | inactive: 0 | inactive: 0 | inactive: 0 | inactive: 0 | inactive: 0 | inactive: 0 | inactive: 0 | inactive: 0 | inactive: 0 | inactive: 0 | inactive: 0 | inactive: 0
O=C(O)c1cc(=O)c2c(OCC(O)COc3cccc4oc(C(=O)O)cc(=O)c34)cccc2o1 [Cromolyn (sodium)] (10 µM) | inactive: 0 | inactive: 0 | inactive: 0 | inactive: 0 | inactive: 0 | inactive: 0 | inactive: 0 | inactive: 0 | inactive: 0 | inactive: 0 | inactive: 0 | inactive: 0 | inactive: 0 | inactive: 0 | inactive: 0 | inactive: 0 | inactive: 0 | inactive: 0 | inactive: 0 | inactive: 0
CNc1nc(Nc2ccc(C(=O)N3CCOCC3)cc2OC)ncc1Cl (2.5 µM) | inactive: 0 | inactive: 0 | inactive: 0 | inactive: 0 | inactive: 0 | inactive: 0 | inactive: 0 | inactive: 0 | inactive: 0 | inactive: 0 | inactive: 0 | inactive: 0 | inactive: 0 | inactive: 0 | inactive: 0 | inactive: 0 | inactive: 0 | inactive: 0 | inactive: 0 | inactive: 0
Cc1c(-c2ccc(C(N)=O)c3[nH]c4cc(C(C)(C)O)ccc4c23)cccc1-n1cnc2ccccc2c1=O (2.5 µM) | inactive: 0 | inactive: 0 | inactive: 0 | inactive: 0 | inactive: 0 | inactive: 0 | inactive: 0 | inactive: 0 | inactive: 0 | inactive: 0 | inactive: 0 | inactive: 0 | inactive: 0 | inactive: 0 | inactive: 0 | inactive: 0 | inactive: 0 | inactive: 0 | inactive: 0 | inactive: 0
CC(C)(O)[C@H]1CC[C@H](Nc2ccc3ncc(-c4cccc(C(F)(F)F)c4)n3n2)CC1 (10 µM) | inactive: 0 | inactive: 0 | inactive: 0 | inactive: 0 | inactive: 0 | inactive: 0 | inactive: 0 | inactive: 0 | inactive: 0 | inactive: 0 | inactive: 0 | inactive: 0 | inactive: 0 | inactive: 0 | inactive: 0 | inactive: 0 | inactive: 0 | inactive: 0 | inactive: 0 | inactive: 0
CC(=O)N1CCC(c2cc(-c3ccc(NC(=O)c4cccn(-c5ccc(F)cc5)c4=O)cc3F)c3c(N)ncnn23)CC1 (0.5 µM) | inactive: 0 | inactive: 0 | inactive: 0 | inactive: 0 | inactive: 0 | inactive: 0 | inactive: 0 | inactive: 0 | inactive: 0 | inactive: 0 | inactive: 0 | inactive: 0 | inactive: 0 | inactive: 0 | inactive: 0 | inactive: 0 | inactive: 0 | inactive: 0 | inactive: 0 | inactive: 0
CCCNC(=O)Nc1ccc(Oc2ncnc3cc(OC)c(OC)cc23)cc1Cl (2.5 µM) | inactive: 0 | inactive: 0 | inactive: 0 | inactive: 0 | inactive: 0 | inactive: 0 | inactive: 0 | inactive: 0 | inactive: 0 | inactive: 0 | inactive: 0 | inactive: 0 | inactive: 0 | inactive: 0 | inactive: 0 | inactive: 0 | inactive: 0 | inactive: 0 | inactive: 0 | inactive: 0
CC(C)(C[C@H](N)C(=O)O)C(F)F [NV-5138 (hydrochloride)] (10 µM) | inactive: 0 | inactive: 0 | inactive: 0 | inactive: 0 | inactive: 0 | inactive: 0 | inactive: 0 | inactive: 0 | inactive: 0 | inactive: 0 | inactive: 0 | inactive: 0 | inactive: 0 | inactive: 0 | inactive: 0 | inactive: 0 | inactive: 0 | inactive: 0 | inactive: 0 | inactive: 0
O=C1NC(=O)/C(=C/c2ccc3nccc(-c4ccncc4)c3c2)S1 (10 µM) | inactive: 0 | inactive: 0 | inactive: 0 | inactive: 0 | inactive: 0 | inactive: 0 | inactive: 0 | inactive: 0 | inactive: 0 | inactive: 0 | inactive: 0 | inactive: 0 | inactive: 0 | inactive: 0 | inactive: 0 | inactive: 0 | inactive: 0 | inactive: 0 | inactive: 0 | inactive: 0
Cc1cc(-c2ccnc(Nc3cnn(C)c3)n2)ccc1CNC(=O)N1CC(OC(C)C)C1 (10 µM) | inactive: 0 | inactive: 0 | inactive: 0 | inactive: 0 | inactive: 0 | inactive: 0 | inactive: 0 | inactive: 0 | inactive: 0 | inactive: 0 | inactive: 0 | inactive: 0 | inactive: 0 | inactive: 0 | inactive: 0 | inactive: 0 | inactive: 0 | inactive: 0 | inactive: 0 | inactive: 0
CC(=O)c1c(C)c2cnc(Nc3ccc(N4CCN(C(=O)CNc5cccc6c5C(=O)N(C5CCC(=O)NC5=O)C6=O)CC4)cn3)nc2n(C2CCCC2)c1=O (stereo not given) (10 µM) | inactive: 0 | inactive: 0 | inactive: 0 | inactive: 0 | inactive: 0 | inactive: 0 | inactive: 0 | active: 1 | inactive: 0 | active: 1 | inactive: 0 | inactive: 0 | inactive: 0 | inactive: 0 | inactive: 0 | inactive: 0 | inactive: 0 | inactive: 0 | inactive: 0 | inactive: 0
Oc1ccc(/C=C/c2cc(O)cc(O)c2)cc1 [Resveratrol] (10 µM) | inactive: 0 | inactive: 0 | inactive: 0 | inactive: 0 | inactive: 0 | inactive: 0 | inactive: 0 | inactive: 0 | inactive: 0 | inactive: 0 | inactive: 0 | inactive: 0 | inactive: 0 | inactive: 0 | inactive: 0 | inactive: 0 | inactive: 0 | inactive: 0 | inactive: 0 | inactive: 0
C[C@@H]1O[C@@H](O[C@@H]2[C@@H](O)[C@H](OCCc3ccc(O)c(O)c3)O[C@H](CO)[C@H]2OC(=O)/C=C/c2ccc(O)c(O)c2)[C@H](O)[C@H](O)[C@H]1O [Verbascoside] (10 µM) | inactive: 0 | inactive: 0 | inactive: 0 | inactive: 0 | inactive: 0 | inactive: 0 | inactive: 0 | inactive: 0 | inactive: 0 | inactive: 0 | inactive: 0 | inactive: 0 | inactive: 0 | inactive: 0 | inactive: 0 | inactive: 0 | inactive: 0 | inactive: 0 | inactive: 0 | inactive: 0
COc1ccc2cc(-c3nc(-c4ccc([S+](C)[O-])cc4)[nH]c3-c3ccncc3)ccc2c1 (stereo not given) [Tie2 kinase inhibitor 1] (2.5 µM) | inactive: 0 | inactive: 0 | inactive: 0 | inactive: 0 | inactive: 0 | inactive: 0 | inactive: 0 | inactive: 0 | inactive: 0 | inactive: 0 | inactive: 0 | inactive: 0 | inactive: 0 | inactive: 0 | inactive: 0 | inactive: 0 | inactive: 0 | inactive: 0 | inactive: 0 | inactive: 0
C[C@@H]1CCNC(=O)c2cc3ccc(C(=O)Nc4nc5ccccc5n4CCCN(C)C)cc3n21 (10 µM) | inactive: 0 | inactive: 0 | inactive: 0 | inactive: 0 | inactive: 0 | inactive: 0 | inactive: 0 | inactive: 0 | inactive: 0 | inactive: 0 | inactive: 0 | inactive: 0 | inactive: 0 | inactive: 0 | inactive: 0 | inactive: 0 | inactive: 0 | inactive: 0 | inactive: 0 | inactive: 0
CC(C)CCNC(=O)c1ccc2c(c1)nc(Nc1n[nH]c3ccc(-c4ccccc4OC(F)(F)F)cc13)n2C1CCC(O)CC1 (stereo not drawn) [IRAK inhibitor 4 (trans)] (10 µM) | inactive: 0 | inactive: 0 | inactive: 0 | inactive: 0 | inactive: 0 | inactive: 0 | inactive: 0 | inactive: 0 | inactive: 0 | inactive: 0 | inactive: 0 | inactive: 0 | inactive: 0 | inactive: 0 | inactive: 0 | inactive: 0 | inactive: 0 | inactive: 0 | inactive: 0 | inactive: 0
CCN(CC)CCC(=O)N1N=C(c2c(-c3ccccc3)c3cc(Br)ccc3[nH]c2=O)CC1c1ccc(Br)cc1 (stereo not given) (2.5 µM) | inactive: 0 | inactive: 0 | inactive: 0 | inactive: 0 | inactive: 0 | inactive: 0 | inactive: 0 | inactive: 0 | inactive: 0 | inactive: 0 | inactive: 0 | inactive: 0 | inactive: 0 | inactive: 0 | inactive: 0 | inactive: 0 | inactive: 0 | inactive: 0 | inactive: 0 | inactive: 0

Quoted from the listing.
CC(C)(O)[C@H]1CC[C@H](Nc2ccc3ncc(-c4cccc(C(F)(F)F)c4)n3n2)CC1 (10 µM) – kinase-Nluc reporter destabilization hit call [13]: inactive: 0
CC(=O)c1c(C)c2cnc(Nc3ccc(N4CCN(C(=O)CNc5cccc6c5C(=O)N(C5CCC(=O)NC5=O)C6=O)CC4)cn3)nc2n(C2CCCC2)c1=O (stereo not given) (10 µM) – kinase-Nluc reporter destabilization hit call [5]: inactive: 0
